PMC2546444 (PLoS ONE, 2008)
Strings that start with PEPTIDE1 are HELM notation: dots part the residues, brackets hold end groups and non-standard residues.

Assay: general procedure: Boc solid-phase peptide synthesis; chloromethylated resin, 0.5–0.8 mequiv/g
Settings: whole synthesis; for final HPLC purity: 214 nm; for final purity (method not given): CZE 214 nm

Substance | final HPLC purity [%] | final purity (method not given) [%]
[endo-(Asp^2a), endo-(Lys^3a)]-All | 97 | 96
Cyclo(1a-2a)[endo-(Asp^1a), endo-(Lys^2a)]-All | 95 | 95
Cyclo(2a-3a)[endo-(Asp^2a), endo-(Lys^3a)]-All | 95 | 95
Cyclo(0-1a)[Asp^0, endo-(Lys^1a)]-All | 97 | 97
PEPTIDE1{D.R.V.Y.I.H.P.F}$$$$V2.0 | 99 | 98
[Asp^0, endo-(Lys^1a)]-All | 95 | 96
[endo-(Asp^1a), endo-(Lys^2a)]-All | 98 | 95
